PubChem BioAssay AID1159584 | Peter MacCallum Cancer Centre | 2016
Screen: 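Genes whose loss is lethal only together with E-cadherin loss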 (primary screen). System: human MCF10A breast epithelial cells, parental and CDH1-null. Reagent: siRNA against human genes. Read-out: 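ATP luminescence (CellTiter-Glo) viability per line relative to mean mock wells over all plates, and the ratio of CDH1-null to parental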. Scale: CDH1-null / parental viability ratio: higher = CDH1-null cells survive relatively better than parental.
In all, the deposit lists about 18,000 reagents; this is a part drawn at random. Further read-outs or replicates are left out here. Not given: the amount of reagent, the time to read-out.

With PRCC (proline rich mitotic checkpoint control factor), what does the deposit list?
CDH1-null / parental viability ratio: 0.99

What is on record for ACTB (actin beta)?
CDH1-null / parental viability ratio: 1.38

For CBX5 (chromobox 5), what was measured?
CDH1-null / parental viability ratio: 1

With SSR3 (signal sequence receptor subunit 3), what was measured?
CDH1-null / parental viability ratio: 1.2

With MKNK1 (MAPK interacting serine/threonine kinase 1), what does the deposit list?
CDH1-null / parental viability ratio: 1.11

For NCLN (nicalin), what does the deposit list?
CDH1-null / parental viability ratio: 0.95

Reformatted: 2 of the entries above
{"gene":"CBX5 (chromobox 5)","CDH1-null / parental viability ratio":1}
{"gene":"SSR3 (signal sequence receptor subunit 3)","CDH1-null / parental viability ratio":1.2}

The list goes on:
What is on record for GTPBP2 (GTP binding protein 2)?
CDH1-null / parental viability ratio: 1

With COLGALT1 (collagen beta(1-O)galactosyltransferase 1), how do the results read?
CDH1-null / parental viability ratio: 0.9

How did the screen score NEK2 (NIMA related kinase 2)?
CDH1-null / parental viability ratio: 0.99

With RNF183 (ring finger protein 183), how do the results read?
CDH1-null / parental viability ratio: 0.81

With CXXC5 (CXXC finger protein 5), what does the deposit list?
CDH1-null / parental viability ratio: 1.35

How did the screen score SLURP1 (secreted LY6/PLAUR domain containing 1)?
CDH1-null / parental viability ratio: 0.88

With ACCSL, what was measured?
CDH1-null / parental viability ratio: 0.96

What is on record for LGALS8 (galectin 8)?
CDH1-null / parental viability ratio: 1.03
